Laboratory results as given in PubChem BioAssay AID540303 (National Center for Advancing Translational Sciences (NCATS), 2011).
Hit rate of the full screen: of about 330,000 compounds, about 1,000 (0.3%) were called active. The inconclusive results got no clear call from the source; some entries with a clear call stand among them for comparison. Calls follow the shape of the dose curve; as a rule, active = well fitted inhibition curve with a large enough effect; inconclusive = small, poorly fitted or top-dose-only effect; inactive = no such curve, though single readings can be large or run the other way; tested in mouse RAW 264.7 cells. Potencies beside an inconclusive call are fits to weak or partial responses and may not hold up.

Experiment: qHTS for Inhibitors of Cell Surface uPA Generation; also: nearly all actives have a fitted effect of over 55% in size
Conditions: cell surface uPA generation assay; series mostly up to 38.3 µM; activity change, negative = inhibition: at the top concentration
Summary of the method: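 Murine RAW 264.7 cells are treated for 24 h with compound up to 38.3 uM final. Cell ATP, measured by ATP-Lite, remains high if blocking the uPA cascade prevents LF from reaching the cytoplasm.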
% is scaled to controls: 0 for no effect and ±100 for the full control effect; potency is read from the fitted curve at half-maximal effect.

Question: With `CCOC(=O)c1cc(-c2cccc([N+](=O)[O-])c2)nc2[nH]c(=O)[nH]c(=O)c12` as the molecule, how does the Potency read?
Answer: Its Potency is inconclusive: 5.01 µM [inhibitor, partial curve, poor fit].

Question: Which “activity change, negative = inhibition” value does the source give for `COC(=O)[C@H](Cc1c[nH]c2ccccc12)NC(=O)NCc1ccccc1` here?
Answer: Its value is inactive: 6.42%.

Question: For `COc1ccc(CNC(=O)COC(=O)C(CCSC)NC(=O)c2ccco2)cc1OC` (stereo not drawn), which Potency is on record?
Answer: The Potency was inconclusive: 0.316 µM [inhibitor, full curve, poor fit].

Question: With `COc1cc(OC)cc(C(=O)Nc2cccc3ccccc23)c1` as the molecule, how does the Potency read?
Answer: Its Potency is inconclusive: 3.98 µM [inhibitor, partial curve, poor fit].

Question: With `CCCCCC(=O)Nc1ncc2c(n1)CC(c1cccs1)CC2=O` (stereo not drawn) as the molecule, how does the Potency read?
Answer: The Potency was inconclusive: 12.6 µM [inhibitor, single point].

Question: For `O=C(CCl)Nc1cccc(S(=O)(=O)NC2=NCCC2)c1`, which Potency is on record?
Answer: The Potency was inconclusive: 12.6 µM [inhibitor, partial curve, poor fit].

Question: With `O=C(CCNC(=O)c1ccccc1)NCc1ccccc1F` as the molecule, how does the Potency read?
Answer: Its Potency is inconclusive: 6.31 µM [inhibitor, single point].

Question: With `Cn1c(=O)c2c(nc(NCC3CCCC(CN)C3)n2Cc2ccc(Cl)cc2Cl)n(C)c1=O` (stereo not drawn) as the molecule, how does the Potency read?
Answer: Its Potency is inconclusive: 8.91 µM [inhibitor, partial curve, poor fit].

Question: For `CC(OC(=O)CCCN=C1NS(=O)(=O)c2ccccc21)C(=O)c1ccccc1` (stereo not drawn), which “activity change, negative = inhibition” value is on record?
Answer: The value was inactive: 2.59%.

Question: Which Potency does the source give for `COC(=O)c1c(F)c(F)c(N2CCOCC2)c(F)c1F` here?
Answer: Its Potency is inconclusive: 12.6 µM [inhibitor, single point].

Question: With `CC(=O)Oc1ccc(OC(C)=O)c2c1CC(C)=C(C)C2` as the molecule, how does the Potency read?
Answer: The Potency was inconclusive: 11.2 µM [inhibitor, partial curve, poor fit].

Question: With `COc1ccc2c(c1OC)C(=O)N(c1cccc(C(F)(F)F)c1)C2` as the molecule, how does the Potency read?
Answer: The Potency was inconclusive: 0.708 µM [inhibitor, partial curve, poor fit].

Question: Which Potency does the source give for `COc1cc2c(cc1OC)C(SC)=NC(C)(C)C2` here?
Answer: Its Potency is inconclusive: 14.1 µM [inhibitor, partial curve, poor fit].

Question: For `Cc1ccc(C(=O)Nn2cnc3ccccc3c2=O)cc1C`, which “activity change, negative = inhibition” value is on record?
Answer: The value was inactive: 4.06%.

Question: For `CCOc1ccccc1C(=O)Nc1ccsc1C(=O)OC`, which “activity change, negative = inhibition” value is on record?
Answer: Its value is inactive: -9.14%.

Question: Which Potency does the source give for `Oc1cc(NCCc2cccnc2)cc2cccnc12` here?
Answer: Its Potency is inconclusive: 28.2 µM [inhibitor, single point].

Question: For `c1ccc(COc2ccc(OCCn3cncn3)cc2)cc1`, which “activity change, negative = inhibition” value is on record?
Answer: The value was inactive: 3.19%.

Question: Which Potency does the source give for `Cn1c(SCC(N)=O)nnc1-c1ccc(C(C)(C)C)cc1` here?
Answer: The Potency was inconclusive: 10 µM [inhibitor, partial curve, poor fit].

Question: For `O=C(CSc1nnc(-c2ccc3c(c2)OCO3)o1)Nc1ncc(Cl)cc1Cl`, which Potency is on record?
Answer: Its Potency is inconclusive: 5.62 µM [inhibitor, partial curve, poor fit].

Question: For `COc1ccc(N2CCC(CNC(=S)Nc3ccc(C)cc3C)C2)cc1` (stereo not drawn), which Potency is on record?
Answer: Its Potency is inconclusive: 10 µM [inhibitor, partial curve, poor fit].

Question: For `O=C1NC[C@H](Cc2ccccc2)N(C[C@H]2CCCN2C[C@H](Cc2ccccc2)N2C[C@H](Cc3ccccc3)N(CCc3ccccc3)C(=O)C2=O)C1=O`, which Potency is on record?
Answer: The Potency was inconclusive: 28.2 µM [inhibitor, single point].

Question: With `Cc1cc(NC2CCCCC2)nc2ccccc12` as the molecule, how does the Potency read?
Answer: Its Potency is inconclusive: 11.2 µM [inhibitor, single point].

Question: With `CC(=O)Nc1ccc(S(=O)(=O)N2CCN=C2SCc2ccc(C)cc2)cc1` as the molecule, how does the “activity change, negative = inhibition” value read?
Answer: The value was inactive: -9.21%.

Question: Which Potency does the source give for `C(=C\c1ccccc1)/CSc1nnc(-c2ccccc2)n1Cc1ccco1` here?
Answer: Its Potency is inconclusive: 2.51 µM [inhibitor, full curve, poor fit].

Question: With `Cc1ccc(NC(=O)c2sc3ncnc(N4CCN(c5ccccn5)CC4)c3c2C)c(C)c1` as the molecule, how does the “activity change, negative = inhibition” value read?
Answer: Its value is inactive: 9.26%.

Question: With `COc1cc(C(=O)Oc2ccc(Br)cc2C(=S)N2CCOCC2)cc(OC)c1OC` as the molecule, how does the “activity change, negative = inhibition” value read?
Answer: The value was inactive: -7.61%.

Question: With `C[C@@H](C(=O)NCCc1ccccc1F)N1C(=O)N2CCc3c([nH]c4ccccc34)[C@@]2(C)C1=O` as the molecule, how does the Potency read?
Answer: Its Potency is inconclusive: 28.2 µM [inhibitor, single point].

Question: For `CCOC(=O)c1c(NC(=O)C2=C(C)NC(=S)NC2c2ccc(F)cc2F)sc(C)c1C` (stereo not drawn), which “activity change, negative = inhibition” value is on record?
Answer: Its value is inactive: -4.51%.

Question: Which “activity change, negative = inhibition” value does the source give for `COC1=CC(=O)C(O)=C(CCCCCCC/C=C/CCCCCCCC2=C(O)C(=O)C=C(OC)C2=O)C1=O` here?
Answer: Its value is inactive: 6.19%.

Question: Which Potency does the source give for `CCN(CC)c1ccc(C(=O)OCC(=O)Nc2ccccc2-c2ccccc2)cc1` here?
Answer: The Potency was inconclusive: 20 µM [inhibitor, single point].

Question: Which Potency does the source give for `COC(=O)c1ccc(COc2cccc3c2OC(C)(C)C3)cc1` here?
Answer: The Potency was inconclusive: 0.794 µM [inhibitor, full curve].

Question: Which Potency does the source give for `Cn1c(=O)c2c(SCC(=O)NCc3ccco3)nc(CC(C)(C)C)nc2n(C)c1=O` here?
Answer: The Potency was inconclusive: 11.2 µM [inhibitor, single point].

Question: For `Cc1cc2c(c(CO)c1CCO)C(=O)[C@@H](C)[C@@H]2O`, which “activity change, negative = inhibition” value is on record?
Answer: The value was inactive: 5.82%.

Question: Which Potency does the source give for `O=C1N=C(N2CCCC2)S/C1=C\C=C\c1ccccc1` here?
Answer: The Potency was inconclusive: 3.16 µM [inhibitor, full curve].

Question: For `O=C(CSc1ccccn1)Nc1ccc(NC(=O)CSc2ccccn2)cc1`, which “activity change, negative = inhibition” value is on record?
Answer: The value was inactive: 8%.

Question: For `CN(C)CCCN(C(=O)c1ccco1)c1nc2ccc(F)cc2s1`, which Potency is on record?
Answer: Its Potency is inconclusive: 10 µM [inhibitor, single point].

Question: Which Potency does the source give for `CN(C)C1(CNC(=O)C2CCN(S(=O)(=O)c3cc(Cl)ccc3Cl)CC2)CCCCC1` here?
Answer: Its Potency is inconclusive: 5.62 µM [inhibitor, partial curve, poor fit].

Question: For `COc1ccccc1CNc1ncnc2c1cnn2-c1ccccc1`, which Potency is on record?
Answer: Its Potency is inconclusive: 10 µM [inhibitor, partial curve].

Question: With `CC(=O)c1ccc(-c2ccc([C@H]3[C@@H]4C=CCC[C@@]4(C)C(=O)N3Cc3ccccc3)c(F)c2)cc1` as the molecule, how does the Potency read?
Answer: Its Potency is inconclusive: 12.6 µM [inhibitor, single point].

Question: For `CN(C(=O)c1ccc(NC(=O)Cc2cccc(NC(=O)C3CCCN(S(=O)(=O)c4cccc([N+](=O)[O-])c4)C3)c2)cc1)C1CC1` (stereo not drawn), which Potency is on record?
Answer: The Potency was inconclusive: 12.6 µM [inhibitor, partial curve, poor fit].

Question: Which Potency does the source give for `COc1ccc(-c2oc3ncnc(NCCCN(C)C)c3c2-c2ccc(OC)cc2)cc1` here?
Answer: The Potency was inconclusive: 12.6 µM [inhibitor, single point].

Question: With `S=C1SCN(Cc2ccccn2)CN1Cc1ccco1` as the molecule, how does the Potency read?
Answer: Its Potency is inconclusive: 5.62 µM [inhibitor, partial curve].

Question: With `CCCC(=O)Nc1nnc(-c2ccc(Cl)s2)o1` as the molecule, how does the “activity change, negative = inhibition” value read?
Answer: The value was inactive: -7.68%.

Question: For `COC(=O)c1ccc2c(CCO)c[nH]c2c1`, which Potency is on record?
Answer: Its Potency is inconclusive: 7.08 µM [inhibitor, partial curve, poor fit].

Question: For `O=C1CC(SC(=Nc2ccccc2)Nc2ccccc2)C(=O)N1c1ccc(Cl)c(Cl)c1` (stereo not drawn), which Potency is on record?
Answer: The Potency was inconclusive: 28.2 µM [inhibitor, single point].

Question: With `O=C(c1cc(-c2ccccc2)n[nH]1)N1CCc2c([nH]c3ccccc23)C1c1ccccn1` (stereo not drawn) as the molecule, how does the “activity change, negative = inhibition” value read?
Answer: The value was inactive: -7.98%.

Question: With `Cc1nc(N2CCN(c3ccccn3)CC2)c2c(C)c(C(=O)Nc3ccc(F)cc3Cl)sc2n1` as the molecule, how does the “activity change, negative = inhibition” value read?
Answer: Its value is inactive: 11%.

Question: Which Potency does the source give for `Cc1ccc(C(=O)N/N=C/c2ccc3c(c2)OCO3)o1` here?
Answer: Its Potency is inconclusive: 10 µM [inhibitor, partial curve, poor fit].

Question: For `COc1ccc(NCc2nnc(SCC(=O)N3CCCc4ccccc43)n2C)cc1`, which “activity change, negative = inhibition” value is on record?
Answer: The value was inactive: -6.57%.

Question: Which “activity change, negative = inhibition” value does the source give for `COc1ccc(/C=N\NC(=O)c2ccccc2F)cc1COc1ccc(F)cc1F` here?
Answer: The value was inactive: -19.3%.

Question: Which Potency does the source give for `Cn1nc(-c2ccc(Cl)cc2)c2cc(C(=O)NC3CC3)sc21` here?
Answer: Its Potency is inconclusive: 11.2 µM [inhibitor, single point].

Question: With `CCC(C)C(=O)N1CCCC(c2nc(-c3cccs3)no2)C1` (stereo not drawn) as the molecule, how does the “activity change, negative = inhibition” value read?
Answer: Its value is inactive: -1.34%.

Question: For `Nc1ccccc1SC(C[N+](=O)[O-])c1ccccc1` (stereo not drawn), which Potency is on record?
Answer: Its Potency is inconclusive: 10 µM [inhibitor, partial curve, poor fit].

Question: For `Cn1c(/C=C/c2ccccc2)nc2ccccc21`, which Potency is on record?
Answer: Its Potency is active: 3.98 µM.

Question: With `CCOC(=O)[C@H]1[C@H]2COc3ccc(Cl)cc3[C@@H]2N2C(=O)c3cc(Cl)ccc3NC(=O)[C@@]12C` as the molecule, how does the Potency read?
Answer: Its Potency is inconclusive: 11.2 µM [inhibitor, single point].

Question: Which Potency does the source give for `CC(C)(C)[C@H]1COC(=O)[C@@H](Cc2ccc(F)cc2)C/C=C\C[C@@H](CC(=O)N[C@H](CO)Cc2ccccc2)C(=O)N1` here?
Answer: Its Potency is inconclusive: 12.6 µM [inhibitor, single point].

Question: With `COc1ccccc1NC(=O)N1CCc2[nH]c3ccc(Cl)cc3c2C1` as the molecule, how does the “activity change, negative = inhibition” value read?
Answer: Its value is inactive: -0.46%.

Question: Which Potency does the source give for `O=C(N/N=C/c1ccc([N+](=O)[O-])o1)c1ccc2c(c1)OCO2` here?
Answer: Its Potency is active: 4.47 µM.

Question: Which Potency does the source give for `O=C(Nc1cc(N2CCCCC2)ncn1)c1ccc(F)cc1` here?
Answer: The Potency was inconclusive: 1.12 µM [inhibitor, full curve, poor fit].

Question: For `S=c1nc[nH]c2nc[nH]c12`, which Potency is on record?
Answer: The Potency was inconclusive: 1.12 µM [inhibitor, full curve, poor fit].

Question: With `O=C(CSc1nc(Nc2ccccc2)nc(N2CCOCC2)n1)N1CCCC1` as the molecule, how does the “activity change, negative = inhibition” value read?
Answer: Its value is inactive: 12.6%.

Question: Which Potency does the source give for `Cc1oc(-c2cc(F)ccc2F)nc1CN1CCN(c2ncnc3ccccc23)CC1` here?
Answer: The Potency was inconclusive: 12.6 µM [inhibitor, single point].

Question: For `CC1=CC(c2ccccc2)n2nc(N)nc2N1` (stereo not drawn), which “activity change, negative = inhibition” value is on record?
Answer: Its value is inactive: -0.884%.

Question: For `Cn1c(-c2ccccc2)c(/C=N/NC(=O)c2ccc(O)cc2)c2ccccc21`, which Potency is on record?
Answer: The Potency was active: 3.55 µM.

Question: With `COc1ccc(C(=O)NNC(=S)NC(=O)C(C)(C)C)cc1` as the molecule, how does the “activity change, negative = inhibition” value read?
Answer: Its value is inactive: -1.52%.

Question: With `Cc1ccc(N(C(=O)c2snc(C(N)=O)c2N)C(C(=O)NCCC(C)C)c2ccco2)cc1` (stereo not drawn) as the molecule, how does the Potency read?
Answer: The Potency was inconclusive: 12.6 µM [inhibitor, single point].

Question: For `O=C(NCCCN1CCN(c2ccc(F)cc2)CC1)Nc1ccc([N+](=O)[O-])cc1`, which Potency is on record?
Answer: Its Potency is inconclusive: 1.78 µM [inhibitor, full curve, poor fit].

Question: For `O=C(c1ccc2c(Cl)c3c(nc2c1)CCCC3)N1CCN(c2ccc(F)cc2)CC1`, which Potency is on record?
Answer: Its Potency is inconclusive: 12.6 µM [inhibitor, single point].
